Assay results as given in article PMC10163288.
Some of the results follow.

B1: il10ra_site1_normal_mot_HHH_b1_01779_000000096_0001_43_57_H_._HHH_b2_05490_af2_0001_0000100007_0000001_0_af2pred_0001 (protein)
chain: SSSSSDEEKLRLAIRFAKHLVEAGDPEAARIILEAAIRVARLLGDEELLEEAEEVLERLDSSSSS
B2: il10ra_site1_sap_20_mot_1c3c3e46dde0d4e4be3ec3dd9add6289_0001_000000096_0001_34_50_H_._HHH_b1_08757_0001_0000100004_0000002_0_0001 (protein)
chain: SSSSSDNERAVETMLKAAKELDDPEYVRLALRFAEMTARALNDPELERLVEEVEEEIEKKSSSSS
B3: il10ra_site1_sap_11_mot_HHH_b1_05357_000000034_0001_23_39_H_._HHH_b2_01717_0001_0000400019_0000003_0_0001 (protein)
chain: SSSSDELRERAEELLEEAEERNDEILAKTARAVLDVVRRAEELGNPEYAELALRFLEQSLSSSSS
B4: il10ra_site1_normal_mot_HHH_b2_06954_000000276_0001_1_20_H_._HHH_b2_04149_0001_0000200004_0000001_0 (protein)
chain: SSSSSEEEEIQEALLLAARVFALLTDPELAQELARLAHELARTGDPELAEELFELARELGSSSSS
B5: il10ra_site1_sap_17_mot_HHH_b1_07478_000000026_0001_21_37_H_._30473498bc9c9bc4038a1594c8f83366_0001_0001_0000200007_0000002_0_0001_af2pred_0001 (protein)
chain: SSSSKIVRVLFRAAKYLLEQGDIENAKLAIRDLEVAAKALNDPEARELVEELKELLEEIEKSSSS
B6: il10ra_site1_sap_16_mot_HHH_b2_00440_af2_000000075_0001_42_56_H_._HHH_b1_01499_0001_0000100006_0000001_0_0001_af2pred_0001 (protein)
chain: SSSSSSLEEEVEELYERAKELLEEGDPEEAARLLHRLAELALKSQDREAAKLAAEITKLSSSSSS
B7: il10ra_site1_sap_11_mot_HHH_b2_02567_af2_000000093_0001_41_57_H_._aad918059751cfb3ae4f7fa8c0860a5b_0001_1_af2_0001_0000100003_0000002_0_0001_af2pred_0001 (protein)
chain: SSSSSKEVEEVIELLRRVAELARRGDEEEAEELAREALQLAEEANNPVLEISARFLLKIVGSSSS
B8: il10ra_site1_sap_15_mot_HHH_b2_00984_000000042_0001_1_20_H_._HHH_b1_04439_0001_0000200021_0000001_0_0001 (protein)
chain: SSSSTEELFEKVEELIKEAIELFREGNPEEAQRLLEELLEELRELGDEALLWTVEYALRRLSSSS
B9: il10ra_site1_normal_mot_HHH_b1_07835_af2_000000063_0001_1_16_H_._HHH_b2_01717_0001_0000300012_0000001_0 (protein)
chain: SSSSDEEIRERVEELLEEVEHIEDPHEAAQLLFEALRRAYELRDPELIELVLRVAAELQESSSSS
B10: il10ra_site1_sap_27_mot_HHH_b1_01513_af2_000000021_0001_1_16_H_._HHH_b1_02119_0001_0001000018_0000001_0_0001 (protein)
chain: SSSSSSEEFIELLVEAVRLAFRRSDEELLRALWRLAKEWGKEGDEKYDEELRELIEEVGSSSSSS
B11: il10ra_site1_sap_12_mot_HHH_b2_01324_000000013_0001_20_37_H_._HHH_b1_06683_0001_0000500030_0000001_1_0001 (protein)
chain: SSSSSSSKEEVEEILEEAEHIENPEEASEVLLRALEVAWRHSDKEALRLVWRVVHELGSSSSSSS
B12: il10ra_site1_normal_mot_HHH_b1_05826_af2_000000294_0001_1_18_H_._HHH_b1_06555_af2_0001_0000100002_0000001_0_af2pred_0001 (protein)
chain: SSSSHEEILRLARKAVRLFLNGNPEEAKEVAQEALRLAEELGDEELAKYLRQLLESIEINGSSSS
B13: il10ra_site1_sap_14_mot_HHH_b1_06914_000000280_0001_1_18_H_._HHH_b1_03835_0001_0000200024_0000001_0_0001_af2pred_0001 (protein)
chain: SSSSSDEERDRRAVELALELLKLADEEVIRRLLRVAKRLAEELNDPELQRLIEEVEEELGSSSSS
B14: il10ra_site1_sap_21_mot_5fda0655e6834f3f331eaa9f580e88ed_0001_af2_000000239_0001_36_50_H_._6586f062cc7817236c67ed8004cc3ec0_0001_0001_0000200013_0000001_0_0001_ … (protein)
chain: SSSSSNDEVFEEVRRLLEEAAQIEDPEEAREVVEEAQRLAEETGNELLELAVEYLLELVGSSSSS
B15: il10ra_site1_normal_mot_HHH_b2_04680_000000215_0001_1_16_H_._HHH_b2_06837_af2_0001_0001300028_0000001_0_af2pred_0001 (protein)
chain: SSSSSSSEKKEVIRLLLEAARIEDPEEAREVVEEALRLAEELNDELLQRQAKVLLRVLSSSSSSS
B16: il10ra_site1_sap_26_mot_HHH_b2_07006_000000108_0001_1_19_H_._HHH_b2_07878_0001_0000200024_0000002_0_0001 (protein)
chain: SSSSDAAEFLLRQAIEAAKLALENGDPEKAEWALENARNLAEQLNDEEVQEEIEELEQELSSSSS
B17: il10ra_site1_sap_27_mot_HHH_b2_04057_000000065_0001_1_20_H_._HHH_b2_03219_af2_0001_0000200005_0000002_0_0001 (protein)
chain: SSSSSDSANEEVYRLSREAAELARKGDPRVEEVLEEAKEIAEEANNMLLQYQVEFLERHLSSSSS
B18: il10ra_site1_normal_mot_7d538683ae38ff56261eb02f12605454_0001_af2_000000062_0001_54_65_H_._HHH_b2_03877_0001_0000200010_0000002_0_af2pred_0001 (protein)
chain: SSSSDAEEEVRELALEFSHLLRNGDEEKAEEVLKEIERLAEESNDPQAKLILRLLELKLESSSSS
B19: il10ra_site1_normal_mot_HHH_b1_01821_000000158_0001_23_39_H_._HHH_b2_07101_0001_0000300018_0000001_0 (protein)
chain: SSSSSDEEERRQEVEELLEEARHIDDPEEVIELLLRALQLAYEVKDQELLQEIWELFHKLSSSSS
B20: il10ra_site1_normal_mot_HHH_b2_01310_000000089_0001_41_55_H_._HHH_b1_01285_af2_0001_0000100007_0000001_0_af2pred_dldesign_0_af2pred (protein)
chain: SSSSDDEEIEKMIEEIKELIEAGKLDEAIEKLREFTRKAWEANNEEWVAKVVELADKILESSSSS
B21: il10ra_site1_normal_mot_HHH_b2_00475_000000107_0001_44_57_H_._HHH_b2_01638_af2_0001_0000200008_0000002_0 (protein)
chain: SSSSEEEQRVAELLFRALRLLAEGNPEEAEKVVEEAQKLAEENNDEELRKYVEILRHFIESHSSS
B22: il10ra_site1_normal_mot_HHH_b2_00984_000000042_0001_1_20_H_._HHH_b2_01444_0001_0000200012_0000001_0 (protein)
chain: SSSSSSEAEELLQLLWEAIKNDDEELVRELIEEIEELLERTGDPNVEALLILARLARESLSSSSS
B23: il10ra_site1_normal_mot_HHH_b2_07521_000000141_0001_20_37_H_._HHH_b2_03446_0001_0000200028_0000001_0 (protein)
chain: SSSSDEEERYLELSLKFAEALLRDGDPEAARLLLKAAKDIAEKSGDEELLEEIERLLEEIGSSSS
B24: il10ra_site1_normal_mot_HHH_b2_00984_000000042_0001_1_20_H_._HHH_b1_03879_af2_0001_0000300007_0000001_0 (protein)
chain: SSSSDEEEIKRLEEELEEAVERQDVELVAEIAKRVLRLAFELRDPELLRAVWELIREFANSSSSS

The binders below were run against il10ra, Q13651 (assay: yeast display titration).

Apparent Kd, inactive:
B1 no binding seen, B2 no binding seen, B3 no binding seen, B4 no binding seen, B5 no binding seen, B6 no binding seen, B7 > 512 nM, B8 no binding seen, B9 no binding seen, B10 no binding seen, B11 no binding seen, B12 no binding seen, B13 no binding seen, B14 no binding seen, B15 no binding seen, B16 no binding seen, B17 no binding seen, B18 no binding seen, B19 no binding seen, B20 no binding seen, B21 no binding seen, B22 no binding seen, B23 no binding seen, B24 no binding seen
